Among the data in publication PMC5589800 are binding values, retold here.

Chains of the proteins cited; added tags and fusions are not shown. Residues count along the entry.
UniProt P29317, residues 24-976: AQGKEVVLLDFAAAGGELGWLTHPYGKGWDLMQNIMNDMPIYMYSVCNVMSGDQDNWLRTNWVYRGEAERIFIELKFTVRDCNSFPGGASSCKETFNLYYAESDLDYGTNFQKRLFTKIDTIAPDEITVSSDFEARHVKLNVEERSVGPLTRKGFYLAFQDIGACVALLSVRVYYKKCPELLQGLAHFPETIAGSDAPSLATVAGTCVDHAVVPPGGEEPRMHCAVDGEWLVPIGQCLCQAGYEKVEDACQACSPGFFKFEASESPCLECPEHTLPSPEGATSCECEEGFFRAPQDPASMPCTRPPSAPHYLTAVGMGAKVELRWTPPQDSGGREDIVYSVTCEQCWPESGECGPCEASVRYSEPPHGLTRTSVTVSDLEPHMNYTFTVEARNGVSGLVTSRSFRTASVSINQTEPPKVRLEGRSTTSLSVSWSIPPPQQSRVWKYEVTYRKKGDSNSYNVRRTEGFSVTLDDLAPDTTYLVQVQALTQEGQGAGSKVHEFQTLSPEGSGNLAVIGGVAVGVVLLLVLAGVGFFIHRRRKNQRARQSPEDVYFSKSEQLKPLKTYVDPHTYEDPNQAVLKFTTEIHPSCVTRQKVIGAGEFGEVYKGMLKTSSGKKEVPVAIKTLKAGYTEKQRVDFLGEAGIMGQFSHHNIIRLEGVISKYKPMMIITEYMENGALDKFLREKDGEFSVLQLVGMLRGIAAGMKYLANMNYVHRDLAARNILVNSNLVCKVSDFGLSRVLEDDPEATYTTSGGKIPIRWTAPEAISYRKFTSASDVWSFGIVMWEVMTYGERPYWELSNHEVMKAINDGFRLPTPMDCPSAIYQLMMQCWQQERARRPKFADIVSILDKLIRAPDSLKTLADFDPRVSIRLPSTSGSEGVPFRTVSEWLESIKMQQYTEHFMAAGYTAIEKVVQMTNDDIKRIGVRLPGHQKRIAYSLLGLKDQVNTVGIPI

What all share (assay): co-IP; Flag M2 magnetic beads from HeLa transiently transfected with Flag-SOCS2 constructs; 1 mM pervanadate for 30 min; endogenous EphA2 detected
In experiment [1] the target is T1, FLAG-mSOCS2 ΔSB (mouse) (UniProt O35717).
T1 sequence: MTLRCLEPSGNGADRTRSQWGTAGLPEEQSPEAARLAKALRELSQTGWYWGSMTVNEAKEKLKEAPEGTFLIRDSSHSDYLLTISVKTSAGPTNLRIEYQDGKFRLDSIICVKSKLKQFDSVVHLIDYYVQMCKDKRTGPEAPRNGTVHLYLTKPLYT

For experiment [2], the target named is T2, FLAG-mSOCS2 ΔNT (mouse) (UniProt O35717).
T2 sequence: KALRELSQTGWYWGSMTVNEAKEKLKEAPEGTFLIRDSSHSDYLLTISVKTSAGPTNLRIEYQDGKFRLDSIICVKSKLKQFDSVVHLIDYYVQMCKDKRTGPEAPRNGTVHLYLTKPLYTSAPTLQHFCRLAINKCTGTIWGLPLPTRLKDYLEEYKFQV

The target of experiment [3] is T3, FLAG-mSOCS2 R73K (mouse) (UniProt O35717).
T3 sequence: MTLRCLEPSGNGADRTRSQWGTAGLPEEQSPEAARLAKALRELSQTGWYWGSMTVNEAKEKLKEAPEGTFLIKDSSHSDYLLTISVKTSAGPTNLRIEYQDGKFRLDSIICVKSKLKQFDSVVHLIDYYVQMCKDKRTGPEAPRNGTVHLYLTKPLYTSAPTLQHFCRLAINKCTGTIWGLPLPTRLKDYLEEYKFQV

Results are given in words; binding and its absence hold for the method and conditions named. Binding seen in cells or lysates may run through a third protein. Some entries that bind do so weakly or less than the wild type. Tags and fused reporters may be left off the sequences shown.

With “ephrin type-A receptor 2 (EphA2), endogenous (from UniProt P29317 24-976)”, the figures for the binding result in experiment [1], in experiment [2] and in experiment [3] were “binds”, “binds” and “no binding”, respectively.
